Measurements: article doi:10.1101/684480
These are yes or no findings as the source states them, for the method shown. Binding calls can cover weak binding; strength is not graded here. For part of these data: In cells and extracts the contact can be indirect.

Key:
[1] = target: kinase-dead BCR-ABL (K271H) (human); assay: native gel or EMSA
[2] = target: BCR-ABL with deleted SH3 domain (human); assay: co-IP
[3] = target: BCR-ABL with deleted SH2 domain (human); assay: co-IP

| Binder | binding [1] | binding [2] | binding [3] |
| --- | --- | --- | --- |
| SHIP2 of NIH3T3 cells (enzyme, UniProt Q6P549 1-1257) MASVCGTPSPGGALGSPAPAWYHRDLSRAAAEELLARAGRDGSFLVRDSESVAGAFALCVLYQKHVHTYRILPDGEDFLAVQTSQGVPVRRFQTLGELIGLYAQPNQGLVCALLLPVEGEREPDPPDDRDASDVEDEKPPLPPRSGSTSISAPVGPSSPLPTPETPTTPAAESTPNGLSTVSHEYLKGSYGLDLEAVRGGASNLPHLTRTLVTSCRRLHSEVDKVLSGLEILSKVFDQQSSPMVTRLLQQQSLPQTGEQELESLVLKLSVLKDFLSGIQKKALKALQDMSSTAPPAPLQPSIRKAKTIPVQAFEVKLDVTLGDLTKIGKSQKFTLSVDVEGGRLVLLRRQRDSQEDWTTFTHDRIRQLIKSQRVQNKLGVVFEKEKDRTQRKDFIFVSARKREAFCQLLQLMKNRHSKQDEPDMISVFIGTWNMGSVPPPKNVTSWFTSKGLGKALDEVTVTIPHDIYVFGTQENSVGDREWLDLLRGGLKELTDLDYRPIAMQSLWNIKVAVLVKPEHENRISHVSTSSVKTGIANTLGNKGAVGVSFMFNGTSFGFVNCHLTSGNEKTTRRNQNYLDILRLLSLGDRQLSAFDISLRFTHLFWFGDLNYRLDMDIQEILNYISRREFEPLLRVDQLNLEREKHKVFLRFSEEEISFPPTYRYERGSRDTYAWHKQKPTGVRTNVPSWCDRILWKSYPETHIICNSYGCTDDIVTSDHSPVFGTFEVGVTSQFISKKGLSKTSDQAYIEFESIEAIVKTASRTKFFIEFYSTCLEEYKKSFENDAQSSDNINFLKVQWSSRQLPTLKPILADIEYLQDQHLLLTVKSMDGYESYGECVVALKSMIGSTAQQFLTFLSHRGEETGNIRGSMKVRVPTERLGTRERLYEWISIDKDDTGAKSKVPSVSRGSQEHRSGSRKPASTETSCPLSKLFEEPEKPPPTGRPPAPPRAVPREEPLNPRLKSEGTSEQEGVAAPPPKNSFNNPAYYVLEGVPHQLLPLEPPSLARAPLPPATKNKVAITVPAPQLGRHRTPRVGEGSSSDEDSGGTLPPPDFPPPPLPDSAIFLPPNLDPLSMPVVRGRSGGEARGPPPPKAHPRPPLPPGTSPASTFLGEVASGDDRSCSVLQMAKTLSEVDYAPGPGRSALLPNPLELQPPRGPSDYGRPLSFPPPRIRESIQEDLAEEAPCPQGGRASGLGEAGMGAWLRAIGLERYEEGLVHNGWDDLEFLSDITEEDLEEAGVQDPAHKRLLLDTLQLSK | binds | – | – |
| SHC1, endogenous (protein, UniProt P29353 1-583) MDLLPPKPKYNPLRNESLSSLEEGASGSTPPEELPSPSASSLGPILPPLPGDDSPTTLCSFFPRMSNLRLANPAGGRPGSKGEPGRAADDGEGIVGAAMPDSGPLPLLQDMNKLSGGGGRRTRVEGGQLGGEEWTRHGSFVNKPTRGWLHPNDKVMGPGVSYLVRYMGCVEVLQSMRALDFNTRTQVTREAISLVCEAVPGAKGATRRRKPCSRPLSSILGRSNLKFAGMPITLTVSTSSLNLMAADCKQIIANHHMQSISFASGGDPDTAEYVAYVAKDPVNQRACHILECPEGLAQDVISTIGQAFELRFKQYLRNPPKLVTPHDRMAGFDGSAWDEEEEEPPDHQYYNDFPGKEPPLGGVVDMRLREGAAPGAARPTAPNAQTPSHLGATLPVGQPVGGDPEVRKQMPPPPPCPGRELFDDPSYVNVQNLDKARQAVGGAGPPNPAINGSAPRDLFDMKPFEDALRVPPPPQSVSMAEQLRGEPWFHGKLSRREAEALLQLNGDFLVRESTTTPGQYVLTGLQSGQPKHLLLVDPEGVVRTKDHRFESVSHLISYHMDNHLPIISAGSELCLQQPVERKL | – | binds | binds |
